Binding data for four molecules are collected here from publication PMC4226561.

To fix the notation:
T1: CESA3, full length, split-YFP (BiFC) fusion (Arabidopsis thaliana) (UniProt Q941L0)
T1 sequence: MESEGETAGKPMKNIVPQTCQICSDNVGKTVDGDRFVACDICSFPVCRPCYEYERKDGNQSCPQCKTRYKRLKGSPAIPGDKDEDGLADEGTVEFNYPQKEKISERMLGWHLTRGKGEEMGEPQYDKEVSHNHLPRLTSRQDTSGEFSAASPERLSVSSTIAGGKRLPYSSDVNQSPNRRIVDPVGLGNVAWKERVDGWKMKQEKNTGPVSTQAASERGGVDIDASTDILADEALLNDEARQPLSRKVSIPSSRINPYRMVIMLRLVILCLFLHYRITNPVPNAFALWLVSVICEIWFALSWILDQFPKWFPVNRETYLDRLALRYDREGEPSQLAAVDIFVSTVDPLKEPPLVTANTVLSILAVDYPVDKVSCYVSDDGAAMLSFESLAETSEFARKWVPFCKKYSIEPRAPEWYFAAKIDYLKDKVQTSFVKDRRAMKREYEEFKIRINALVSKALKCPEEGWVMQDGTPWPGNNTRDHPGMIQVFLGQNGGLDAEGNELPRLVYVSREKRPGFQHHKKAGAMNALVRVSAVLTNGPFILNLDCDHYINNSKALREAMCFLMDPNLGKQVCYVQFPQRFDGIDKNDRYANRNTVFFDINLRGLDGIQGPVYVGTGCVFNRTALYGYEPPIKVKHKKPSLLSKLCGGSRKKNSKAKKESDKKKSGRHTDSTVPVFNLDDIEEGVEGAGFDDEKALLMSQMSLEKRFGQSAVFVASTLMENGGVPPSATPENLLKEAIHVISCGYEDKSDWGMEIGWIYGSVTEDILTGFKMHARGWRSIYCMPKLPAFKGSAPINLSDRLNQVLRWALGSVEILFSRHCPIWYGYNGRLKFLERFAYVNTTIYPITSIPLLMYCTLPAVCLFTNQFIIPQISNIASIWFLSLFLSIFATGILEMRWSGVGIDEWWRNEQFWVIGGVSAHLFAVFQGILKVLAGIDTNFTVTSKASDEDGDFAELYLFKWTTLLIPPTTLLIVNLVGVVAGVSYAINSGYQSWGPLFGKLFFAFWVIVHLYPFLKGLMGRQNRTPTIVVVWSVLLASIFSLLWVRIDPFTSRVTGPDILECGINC

T2: CESA4, full length, split-YFP (BiFC) fusion (Arabidopsis thaliana) (UniProt Q84JA6)
T2 sequence: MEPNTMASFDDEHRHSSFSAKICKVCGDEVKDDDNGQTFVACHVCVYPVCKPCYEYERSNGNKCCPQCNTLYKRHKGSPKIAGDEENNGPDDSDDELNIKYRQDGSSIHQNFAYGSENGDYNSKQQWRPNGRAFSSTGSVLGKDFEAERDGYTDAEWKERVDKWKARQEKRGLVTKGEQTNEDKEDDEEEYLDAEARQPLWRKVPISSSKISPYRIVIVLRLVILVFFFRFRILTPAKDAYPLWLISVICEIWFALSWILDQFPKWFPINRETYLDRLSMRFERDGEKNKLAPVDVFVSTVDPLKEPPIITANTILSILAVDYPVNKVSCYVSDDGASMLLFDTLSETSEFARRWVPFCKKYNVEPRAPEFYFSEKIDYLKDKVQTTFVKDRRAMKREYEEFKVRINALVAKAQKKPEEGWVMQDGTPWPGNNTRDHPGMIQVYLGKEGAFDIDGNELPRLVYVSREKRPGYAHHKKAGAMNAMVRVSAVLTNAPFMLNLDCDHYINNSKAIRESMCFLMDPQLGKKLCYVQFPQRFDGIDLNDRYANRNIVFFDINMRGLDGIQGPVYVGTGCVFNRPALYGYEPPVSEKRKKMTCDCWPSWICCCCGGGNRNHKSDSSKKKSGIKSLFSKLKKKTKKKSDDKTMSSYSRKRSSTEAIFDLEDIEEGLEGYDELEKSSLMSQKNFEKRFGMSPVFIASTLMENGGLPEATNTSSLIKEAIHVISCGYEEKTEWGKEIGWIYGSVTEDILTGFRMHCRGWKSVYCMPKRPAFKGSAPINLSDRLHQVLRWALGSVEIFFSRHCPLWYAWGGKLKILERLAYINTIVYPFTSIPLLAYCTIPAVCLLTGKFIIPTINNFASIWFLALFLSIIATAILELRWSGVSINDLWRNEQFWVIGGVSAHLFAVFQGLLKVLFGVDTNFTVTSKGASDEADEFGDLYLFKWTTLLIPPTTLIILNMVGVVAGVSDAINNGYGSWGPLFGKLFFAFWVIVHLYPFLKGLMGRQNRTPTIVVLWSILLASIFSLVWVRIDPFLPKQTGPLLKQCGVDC

B1: KORRIGAN1 (KOR1), full length, split-YFP (BiFC) fusion (protein, UniProt Q38890 1-621)
chain: MYGRDPWGGPLEINTADSATDDDRSRNLNDLDRAALSRPLDETQQSWLLGPTEQKKKKYVDLGCIIVSRKIFVWTVGTLVAAALLAGFITLIVKTVPRHHPKTPPPDNYTIALHKALKFFNAQKSGKLPKHNNVSWRGNSGLQDGKGETGSFYKDLVGGYYDAGDAIKFNFPMAYAMTMLSWSVIEYSAKYEAAGELTHVKELIKWGTDYFLKTFNSTADSIDDLVSQVGSGNTDDGNTDPNDHYCWMRPEDMDYKRPVTTCNGGCSDLAAEMAAALASASIVFKDNKEYSKKLVHGAKVVYQFGRTRRGRYSAGTAESSKFYNSSMYWDEFIWGGAWMYYATGNVTYLNLITQPTMAKHAGAFWGGPYYGVFSWDNKLAGAQLLLSRLRLFLSPGYPYEEILRTFHNQTSIVMCSYLPIFNKFNRTNGGLIELNHGAPQPLQYSVNAAFLATLYSDYLDAADTPGWYCGPNFYSTSVLRDFARSQIDYILGKNPRKMSYVVGFGTKYPRHVHHRGASIPKNKVKYNCKGGWKWRDSKKPNPNTIEGAMVAGPDKRDGYRDVRMNYNYTEPTLAGNAGLVAALVALSGEEEATGKIDKNTIFSAVPPLFPTPPPPPAPWKP
B2: KOR1C (AA 70 to 621), split-YFP (BiFC) fusion (domain or fragment, UniProt Q38890 70-621)
chain: KIFVWTVGTLVAAALLAGFITLIVKTVPRHHPKTPPPDNYTIALHKALKFFNAQKSGKLPKHNNVSWRGNSGLQDGKGETGSFYKDLVGGYYDAGDAIKFNFPMAYAMTMLSWSVIEYSAKYEAAGELTHVKELIKWGTDYFLKTFNSTADSIDDLVSQVGSGNTDDGNTDPNDHYCWMRPEDMDYKRPVTTCNGGCSDLAAEMAAALASASIVFKDNKEYSKKLVHGAKVVYQFGRTRRGRYSAGTAESSKFYNSSMYWDEFIWGGAWMYYATGNVTYLNLITQPTMAKHAGAFWGGPYYGVFSWDNKLAGAQLLLSRLRLFLSPGYPYEEILRTFHNQTSIVMCSYLPIFNKFNRTNGGLIELNHGAPQPLQYSVNAAFLATLYSDYLDAADTPGWYCGPNFYSTSVLRDFARSQIDYILGKNPRKMSYVVGFGTKYPRHVHHRGASIPKNKVKYNCKGGWKWRDSKKPNPNTIEGAMVAGPDKRDGYRDVRMNYNYTEPTLAGNAGLVAALVALSGEEEATGKIDKNTIFSAVPPLFPTPPPPPAPWKP
B3: KOR1N (AA 1 to 94), split-YFP (BiFC) fusion (domain or fragment, UniProt Q38890 1-94)
chain: MYGRDPWGGPLEINTADSATDDDRSRNLNDLDRAALSRPLDETQQSWLLGPTEQKKKKYVDLGCIIVSRKIFVWTVGTLVAAALLAGFITLIVK

Results are given in words; binding and its absence hold for the method and conditions named. Binding seen in cells or lysates may run through a third protein. Some results given as binding are weak or reduced against the parent protein; the word gives no strength. Sequences can lack the tags named with a protein.

The target in one assay is T1, CESA3, full length, split-YFP (BiFC) fusion (Arabidopsis thaliana). The assay can be described thus: split reporter; BiFC: Y/N and Y/C fragments of YFP each linked to the N-terminus of the proteins, transiently expressed in leaves of 3-week-old N. benthamiana; YFP fluorescence by confocal microscopy 3 days after infiltration.
As to B1, the binding entry is on record as “binds”.
Same read-out and setting: in the case of KIFVWTVGTLVAAALLAGFITLIVK (domain or fragment, UniProt Q38890 70-94) [KOR1TMD (AA 70 to 94), split-YFP (BiFC) fusion] it was “binds”; in that of B2, “binds”; in that of B3, “binds”.

Another assay deals with T2, CESA4, full length, split-YFP (BiFC) fusion (Arabidopsis thaliana). The description is as above.
As to B1, the binding result was “binds”.
KIFVWTVGTLVAAALLAGFITLIVK (domain or fragment, UniProt Q38890 70-94) [KOR1TMD (AA 70 to 94), split-YFP (BiFC) fusion]: the binding result is “binds weakly”.
As for B2, the binding entry is “binds”.
In the case of B3, the binding result was “binds”.
